Laboratory results from PubChem BioAssay AID1347076 (National Center for Advancing Translational Sciences (NCATS), 2019).
Out of some 400,000 compounds screened, about 13,000 (3.2%) were called active. The shares of active, inactive and inconclusive entries below differ from those in the screen. Calls come from the whole dose curve; as a rule, active = well fitted cell-killing curve with a large enough effect; inconclusive = small, poorly fitted or top-dose-only effect, or effect the other way; inactive = flat fitted curve, though single readings scatter. Potencies of inconclusive entries are doubtful fits and often do not repeat.

Assay: qHTS assay for MDR1-selective chemotherapeutics: Primary screen using the drug-selected MDR subline cells KB-V1; note: nearly all actives have a fitted effect of over 60% in size
Conditions: KB-V1 MDR cells viability, CellTiter-Glo, 72 h; activity change, negative = cytotoxicity: at 46.1 µM (top of the series)
Procedure, shortened: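 Cytotoxicity via CellTiter-Glo luminescence after 72 h compound exposure at 37 degrees C. Cells: drug-selected KB-V1 line, DMEM phenol-red free plus 10% FBS. Compounds tested at multiple concentrations; normalized data fitted to concentration-effect curves.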
% is set by controls: 0 for no effect and ±100 for the full control effect; potency is the fitted concentration of half-maximal effect.

Q: With `COc1cc(NC(=O)CSc2nc3ncccc3o2)cc(OC)c1` as the molecule, how does the “activity change, negative = cytotoxicity” value read?
A: Its value is inactive: 12.1%.

Q: Which Potency does the source give for `Cc1cc(C)c2cc(CN(CCCO)S(=O)(=O)c3ccccc3F)c(=O)[nH]c2c1` here?
A: The Potency was inconclusive: 14.6 µM [cytotoxic, partial curve].

Q: Which “activity change, negative = cytotoxicity” value does the source give for `Cc1ccc(N=c2c([N+](=O)[O-])nn(-c3ccccc3)n2O)c(C)c1` here?
A: The value was inactive: -27.7%.

Q: Which “activity change, negative = cytotoxicity” value does the source give for `Cc1ccccc1Oc1nnc(-c2cccs2)c2ccccc12` here?
A: The value was inactive: -27.9%.

Q: With `Cc1c(C(=O)N2CCC(C)CC2)sc2ncnc(N3CCN(c4ccccc4)CC3)c12` as the molecule, how does the Potency read?
A: The Potency was active: 4.61 µM.

Q: With `C(=C\c1ccccc1)/CSc1nnc(-c2ccccn2)n1Cc1ccco1` as the molecule, how does the Potency read?
A: Its Potency is inconclusive: 2.91 µM [cytotoxic, full curve].

Q: With `Nc1nnc(CCC2CCCCC2)s1` as the molecule, how does the “activity change, negative = cytotoxicity” value read?
A: The value was inactive: -16.3%.

Q: Which Potency does the source give for `COc1ccccc1Cn1c(C)c(C(=O)NCCC#N)sc1=O` here?
A: The Potency was inconclusive: 23.1 µM [cytotoxic, single point].

Q: With `Nc1nc(-c2ccccc2)cc(N2CCCCC2)n1` as the molecule, how does the Potency read?
A: Its Potency is inconclusive: 29.1 µM [cytotoxic, single point].

Q: For `COc1ccc(C(=O)CCN2CCN(c3ccc(OC)cc3)CC2)cc1`, which “activity change, negative = cytotoxicity” value is on record?
A: The value was inactive: -1.82%.

Q: Which “activity change, negative = cytotoxicity” value does the source give for `O=[N+]([O-])c1cc(S(=O)(=O)Nc2ccccc2)ccc1N1CCN(c2ccc(O)cc2)CC1` here?
A: Its value is inactive: -3.9%.

Q: For `Nc1cc(Cl)cc2c1-c1ccc(Cl)cc1C2`, which Potency is on record?
A: Its Potency is inconclusive: 29.1 µM [cytotoxic, single point].

Q: Which Potency does the source give for `Cc1ccc(CN2CCN(Cc3cnn(-c4ccc(F)cc4)c3)CC2CCO)o1` (centres undefined) here?
A: Its Potency is inconclusive: 29.1 µM [cytotoxic, single point].

Q: For `O=C(Nc1ccsc1C(=O)N1CCCC1)c1ccccc1`, which Potency is on record?
A: The Potency was inconclusive: 6.51 µM [cytotoxic, partial curve].

Q: With `CCN(c1ccccc1)S(=O)(=O)c1ccc(OC)c(NC(=O)CNC)c1` as the molecule, how does the Potency read?
A: The Potency was inconclusive: 20.6 µM [cytotoxic, single point].

Q: With `Cc1ccc(OCCn2cnc(Cl)c2Cl)cc1` as the molecule, how does the Potency read?
A: The Potency was inconclusive: 16.4 µM [cytotoxic, single point].

Q: For `CC(C)(C)OC(=O)NCCCCCc1nnc(SCc2ccccc2F)o1`, which Potency is on record?
A: The Potency was inconclusive: 18.4 µM [cytotoxic, single point].

Q: With `COc1ccc(N=C2C(=O)Nc3ccccc32)cc1` as the molecule, how does the “activity change, negative = cytotoxicity” value read?
A: The value was inactive: 8.23%.

Q: Which Potency does the source give for `Cc1cccc(NC(=O)[C@@H](NC(=O)[C@@H]2Cc3ccccc3CN2)C(C)C)c1` here?
A: The Potency was inconclusive: 20.6 µM [rising, single point].

Q: Which Potency does the source give for `O=C(Nc1nn(Cc2ccc(Cl)cc2)cc1Br)c1ccc(COc2ccccc2Cl)o1` here?
A: Its Potency is active: 16.4 µM.

Q: Which Potency does the source give for `COCCn1c(=S)[nH]c2cc(C(=O)N3CCN(Cc4ccc5c(c4)OCO5)CC3)ccc2c1=O` here?
A: Its Potency is active: 2.59 µM.

Q: With `O=C(c1ccc(F)cc1)N1CCC(C(=O)N2CCN(S(=O)(=O)c3cccc(F)c3)CC2)CC1` as the molecule, how does the “activity change, negative = cytotoxicity” value read?
A: Its value is inactive: -4.11%.

Q: For `CC1=C(C(=O)OCc2ccccc2)C(c2ccc(C)cc2)NC(=O)N1` (centres undefined), which “activity change, negative = cytotoxicity” value is on record?
A: The value was inactive: -25.2%.

Q: Which “activity change, negative = cytotoxicity” value does the source give for `CCN(Cc1ccccc1)CC(O)COC(c1ccc(OC)cc1)c1ccc(OC)cc1` (centres undefined) here?
A: The value was inactive: -15%.

Q: Which “activity change, negative = cytotoxicity” value does the source give for `CCc1ccc(CSc2nccn2-c2ccccc2)cc1` here?
A: Its value is inactive: -3.63%.

Q: For `FC(F)(F)c1cc(Sc2ccccc2)nc(-c2ccccn2)n1`, which Potency is on record?
A: Its Potency is inconclusive: 29.1 µM [cytotoxic, single point].

Q: With `CCOC(=O)c1c(NC(=O)COc2ccc(Cl)cc2C)sc2c1CCCCC2` as the molecule, how does the “activity change, negative = cytotoxicity” value read?
A: The value was inactive: 2.34%.

Q: With `COCCCNC(=S)NCCCNc1nc2cc(C)cc(C)c2cc1C#N` as the molecule, how does the “activity change, negative = cytotoxicity” value read?
A: The value was inactive: -8.42%.

Q: For `O=C(CNC(=O)c1cccc(OC(F)F)c1)OCC(=O)c1ccccc1`, which Potency is on record?
A: The Potency was inconclusive: 2.59 µM [rising, full curve, poor fit].

Q: For `CCOC(=O)CC(NC(=O)c1ccco1)c1ccc(OC)cc1` (centres undefined), which Potency is on record?
A: The Potency was active: 23.1 µM.

Q: With `O=C(COC(=O)c1ccccc1Nc1ccccc1)NCc1ccccc1` as the molecule, how does the Potency read?
A: The Potency was inconclusive: 29.1 µM [cytotoxic, single point].

Q: Which Potency does the source give for `S=C(N/N=C/c1cccs1)NC1CC2CCC1C2` (centres undefined) here?
A: Its Potency is inconclusive: 14.6 µM [cytotoxic, partial curve, poor fit].

Q: Which Potency does the source give for `CC(C)[C@@H]1Cc2[nH][nH]c(=O)c2[C@H](C)O1` here?
A: The Potency was inconclusive: 18.4 µM [rising, single point].

Q: Which Potency does the source give for `CCOc1ccc(NC(=O)c2ccccc2OCC(=O)c2ccccc2)cc1` here?
A: Its Potency is inconclusive: 20.6 µM [cytotoxic, partial curve, poor fit].

Q: For `CCn1cc(S(=O)(=O)c2ccccc2)c(=O)c2cc(F)c(N3CCN(C)CC3)cc21`, which Potency is on record?
A: Its Potency is inconclusive: 20.6 µM [rising, single point].

Q: Which “activity change, negative = cytotoxicity” value does the source give for `CC(C)Oc1ccc(-c2nc(-c3cccnc3)no2)cc1` here?
A: The value was inactive: 10.3%.

Q: For `Cc1cccc(NS(=O)(=O)c2ccc3c(c2)CC(C)N3C(=O)C2CCC2)c1C` (centres undefined), which Potency is on record?
A: Its Potency is inconclusive: 8.2 µM [cytotoxic, partial curve].

Q: For `COc1ccc(CC(=O)Oc2ccc(C(C)C)cc2)cc1S(=O)(=O)N1CCOCC1`, which Potency is on record?
A: Its Potency is inconclusive: 29.1 µM [rising, single point].

Q: Which activity change, negative = cytotoxicity does the source give for `O=C(COC(=O)c1cccc(-n2cnnn2)c1)c1ccccc1` here?
A: Its activity change, negative = cytotoxicity is inconclusive: 11.1%.

Q: For `CN(Cc1ccccc1)C(=O)COC(=O)c1cc(NS(=O)(=O)c2cccs2)ccc1O`, which “activity change, negative = cytotoxicity” value is on record?
A: Its value is inactive: -29.5%.

Q: For `CC(C)CC(C(=O)O)N1C(=O)C2C3C=CC(C2C1=O)C1C(=O)N(C(CC(C)C)C(=O)O)C(=O)C31` (centres undefined), which Potency is on record?
A: The Potency was inconclusive: 20.6 µM [rising, partial curve].

Q: For `COc1ccc(-c2ccnc(SCC(=O)c3ccc(OC)c(OC)c3)n2)cc1`, which Potency is on record?
A: The Potency was active: 16.4 µM.

Q: For `CCc1cc(=O)oc2cc(C)cc(O)c12`, which “activity change, negative = cytotoxicity” value is on record?
A: The value was inactive: 3%.

Q: With `S=c1[nH]nc(COc2ccccc2)n1/N=C/c1ccncc1` as the molecule, how does the “activity change, negative = cytotoxicity” value read?
A: Its value is inactive: -3.62%.

Q: With `Cc1ccc(-c2nn3c(C)nnc3s2)cc1NC(=O)c1ccc(OC(C)C)cc1` as the molecule, how does the Potency read?
A: Its Potency is inconclusive: 16.4 µM [cytotoxic, single point].

Q: For `O=C(Nc1ccccc1Cc1ccccc1)c1ccccc1NS(=O)(=O)c1ccc(Cl)s1`, which Potency is on record?
A: The Potency was active: 2.59 µM.

Q: For `CCOC(=O)C1C(c2ccccc2Cl)NC(=O)N(C)C1(O)C(F)(F)F` (centres undefined), which Potency is on record?
A: The Potency was inconclusive: 20.6 µM [cytotoxic, single point].

Q: For `O=C(Nc1ccccc1N1CCOCC1)c1ccc(Br)o1`, which Potency is on record?
A: The Potency was inconclusive: 9.2 µM [cytotoxic, partial curve].

Q: Which Potency does the source give for `CN(CC(=O)Nc1c(Cl)cccc1Cl)CC(=O)N1CCc2ccccc21` here?
A: Its Potency is inconclusive: 18.4 µM [cytotoxic, single point].
